In PubChem BioAssay AID1487 (National Center for Advancing Translational Sciences (NCATS), 2009):
Several values for one entry are separate records, joined by “and”; a condition that tells them apart may be missing. Identical values can stand only once. Some of the results follow. These are further read-outs of the screen, such as a control signal, another cell line or another target. No call is given for them. Compounds called inactive in the main read-out are mostly missing here. Words in brackets tell the shape of the fitted curve; partial curves, single points and poor fits give uncertain potencies.

Assay: qHTS Assay for Modulators of Lamin A Splicing
Settings: HeLa LMNA splicing GFP/RFP minigene ratio, 48 h
Method in brief: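 Read-out is the ratio of GFP to DsRed2 object intensity, acquired by 488 nm laser-scanning cytometry on HeLa lamin A-EGFP minigene reporter cells. Compound incubation 48 hrs at 37 °C in Opti-MEM with 2% FBS; DMSO 0.5% final.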

[1] = measured here: RFP viability control channel
[2] = measured here: GFP splicing reporter channel

Structure (SMILES)	AC50 [1]	AC50 [2]
Cc1nn(Cc2ccc(Cl)cc2)c(C)c1NC(=O)CSc1nc2c(c(C(F)(F)F)n1)CCc1ccccc1-2	22.4 µM [falling, partial curve]	–
CCc1ccc2oc(-c3cccc(NC(=O)c4cccnc4)c3)nc2c1	–	35.5 µM [rising, single point]
Cc1ccc(CNC(=O)Cn2ccn(-c3ccc(F)c(F)c3)c(=O)c2=O)cc1	11.2 µM [falling, partial curve]	–
CCOc1ccc(C(=O)Nc2ccc(C(=O)OCc3cc(=O)n4c(C)csc4n3)cc2)cc1	35.5 µM [falling, single point]	35.5 µM [falling, single point]
CC1CCN(C(=O)c2cc(-c3ccc(Cl)c(Cl)c3)on2)CC1	35.5 µM [rising, single point]	–
CC1(C)CC(CC(=O)Nc2nccs2)(c2ccccc2)CCO1 (stereo not given)	0.0447 µM [falling, full curve, poor fit]	2.82 µM [falling, partial curve, poor fit]
CCCc1cc(=O)oc2cc(C)c3c(C)coc3c12	–	1.58 µM [rising, full curve, poor fit]
CCCCn1c(N(CCOC(C)=O)C(C)=O)nc2ccccc21	12.6 µM [rising, partial curve]	–
COc1ccccc1OCCNCC(O)COc1cccc2[nH]c3ccccc3c12 (stereo not given)	8.91 µM [rising, partial curve, poor fit]	7.94 µM [falling, partial curve]
COc1ccc(C2C(C#N)=C(N)Oc3cc4c(cc32)OCO4)cc1 (stereo not given)	31.6 µM [rising, single point]	–
CSc1cccc(NC(=S)N2CCCN(Cc3ccccc3F)C2)c1	4.47 µM [falling, full curve]	–
Oc1ccccc1Cn1c(-c2ccccc2O)nc2ccccc21	20 µM [rising, single point]	12.6 µM [rising, partial curve]
CN(C)S(=O)(=O)c1cc(NC(=O)CN2CCOCC2)ccc1Cl	3.98 µM [falling, single point]	–
Cc1cc(NC(=O)C2CCCN(S(=O)(=O)c3cn(C)cn3)C2)ccc1Br (stereo not given)	35.5 µM [falling, single point]	25.1 µM [falling, single point]
Cc1nc(NC(C)C)c2oc3ccccc3c2n1	14.1 µM [rising, partial curve]	15.8 µM [rising, partial curve, poor fit]
O=C(Nc1ccc(N2CCOCC2)cc1)C1CCCN(S(=O)(=O)c2ccccc2)C1 (stereo not given)	11.2 µM [rising, partial curve]	–
C/C(=N\NC(=O)COc1ccc(C)cc1[N+](=O)[O-])c1cccs1	0.126 µM [rising, single point]	–
Cc1nnc(SCC(=O)Nc2sc3c(c2C(=O)c2ccccc2)CCCC3)s1	31.6 µM [rising, single point]	–
CC(=O)c1c[nH]c2ccc(C)cc2c1=O	–	35.5 µM [rising, single point]
Cc1cc(C)c(C)c(S(=O)(=O)N2CCN(C(=O)c3cc(=O)[nH]c4ccccc34)CC2)c1C	3.55 µM [falling, partial curve, poor fit]	2.51 µM [falling, full curve, poor fit]
Cc1ccc(NCc2nnc(SCC(=O)Nc3ncc(C)s3)n2CC2CCCO2)c(C)c1 (stereo not given)	11.2 µM [rising, single point]	6.31 µM [rising, partial curve]
CCOc1ccc(NC(=O)c2c(NCc3cccs3)sc3c2CCCCC3)cc1	–	35.5 µM [falling, single point]
O=C(CC1C(=O)NCCN1Cc1cccc(Oc2ccccc2)c1)NCCc1ccncc1 (stereo not given)	–	5.62 µM [rising, single point]
COCCn1c(SCC(=O)Nc2nc(C)c(Cl)cc2Cl)nc2ccccc21	35.5 µM [rising, single point]	25.1 µM [rising, single point]
O=[N+]([O-])c1ccc(S(=O)(=O)CC2CSc3nc4ccccc4n32)cc1 (stereo not given)	3.55 µM [rising, full curve]	1.78 µM [rising, full curve]
CC(C)Cn1c(C(C)C)nc([N+](=O)[O-])c1S(=O)(=O)c1ccc(F)cc1	35.5 µM [falling, single point]	31.6 µM [falling, single point]
O=C(c1cccc(S(=O)(=O)N2CCc3ccccc3C2)c1)N1CCN(c2ccc(O)cc2)CC1	–	0.891 µM [rising, partial curve]
Cc1ccc(S(=O)(=O)N/N=C\c2ccc(Cl)c([N+](=O)[O-])c2)cc1	10 µM [rising, partial curve]	–

Structure (SMILES)	AC50 [1]	AC50 [2]
O=c1c2c3c(sc2n(CCN2CCOCC2)c(=O)n1Cc1ccco1)CCCCC3	–	0.112 µM [rising, full curve]
O=C(NCC1CCCCN1)c1cc(OCC(F)(F)F)ccc1OCC(F)(F)F (stereo not given)	1.26 µM [rising, partial curve, poor fit] and 12.6 µM [rising, single point]	0.0112 µM [falling, full curve, poor fit]
O=c1cc(CO)[nH]cc1OCc1ccccc1	–	0.316 µM [rising, full curve, poor fit]
O=C(NCCc1ccc(Cl)cc1)c1ccc(CSCc2ccc(Cl)cc2)o1	35.5 µM [rising, single point]	–
CCN(CC)S(=O)(=O)c1ccc(Oc2cccc(C(C)=O)c2)nc1	–	5.62 µM [rising, partial curve, poor fit]
COc1ccc(N2CCN(C(=O)Nc3ccccc3Cl)CC2)cc1	0.0224 µM [falling, full curve, poor fit]	–
CCCC(=O)n1nc(-c2cccnc2)nc1NCc1ccccc1	0.0112 µM [falling, full curve, poor fit]	–
CN(C)C(=S)Nc1nc2ccccc2s1	0.126 µM [falling, full curve]	22.4 µM [falling, partial curve]
COCCNC(=O)NC(=O)CSc1nc(C)c(C)c(C)n1	–	35.5 µM [falling, single point]
Cc1nn(Cc2ccccc2)c(Cl)c1C(=O)NCCc1ccc(Cl)cc1	35.5 µM [rising, single point]	31.6 µM [rising, single point]
O=C(NCc1cccnc1)c1c[nH]c2cc3c(cc2c1=O)OCCO3	3.16 µM [rising, full curve]	1.12 µM [rising, full curve]
C=CCNc1nc2c(c(=O)n(C)c(=O)n2C)n1CCCCCC	3.16 µM [rising, full curve]	2.24 µM [rising, partial curve, poor fit]
CCOC(=O)c1c(C)n(CCO)c2ccc(O)cc12	5.62 µM [rising, single point]	–
COCCNC(=O)/C(C#N)=C/c1ccc(C(=O)O)cc1	0.00447 µM [falling, full curve, poor fit]	–
COc1ccc(-n2c(O)c(/C=N/NS(=O)(=O)c3ccc(C)cc3)c3ccccc3c2=O)cc1OC	8.91 µM [rising, partial curve]	–
CCOC(=O)c1c(NC(=O)COc2cccc3c2CCN(C)C3=O)sc2c1CCC2	12.6 µM [rising, partial curve]	8.91 µM [rising, partial curve, poor fit]
CCOc1ccccc1Nc1nnc(SCC(=O)Nc2cccc(S(=O)(=O)NC3=NCCCCC3)c2)s1	11.2 µM [rising, partial curve]	2.51 µM [rising, full curve]
COc1nccnc1NS(=O)(=O)c1ccc(NC(=S)NC(=O)c2ccc(F)c(F)c2)cc1	–	3.98 µM [falling, partial curve]
CC(C)(C)c1ccc(Cn2cnc(-c3ccc([N+](=O)[O-])cc3)c2)cc1	35.5 µM [rising, single point]	–
Cn1c(CSCc2ccc(Cl)c(Cl)c2)n[nH]c1=S	–	0.708 µM [rising, full curve, poor fit]
O=C1N/C(=N\N=C\c2cccs2)SC1Cc1ccc(Cl)cc1Cl (stereo not given)	5.01 µM [rising, full curve]	–
CCC(=O)Nc1ccc2oc(-c3ccccc3Br)nc2c1	0.0708 µM [falling, full curve, poor fit]	–
O=C(NCc1cccc(C(F)(F)F)c1)c1cc(Cl)ccc1Cl	35.5 µM [rising, single point]	–
Cc1ccc(-c2nnc(CSc3nc4cc5c(cc4cc3C)OCO5)o2)cc1	12.6 µM [rising, partial curve]	11.2 µM [rising, partial curve]
O=C(Nc1nc2ccc(S(=O)(=O)N3CCCC3)cc2s1)c1cccs1	11.2 µM [rising, partial curve, poor fit]	–
CCCCOc1ccc(OCCCN2CCOCC2)cc1	0.355 µM [falling, partial curve, poor fit]	5.62 nM [rising, full curve, poor fit] and 28.2 µM [falling, single point]
CCSc1ccc(-c2ccc(C)cc2)nn1	14.1 µM [falling, partial curve, poor fit]	–
